Measured values reported in the supplement of paper PMC11006884.
This is a selection; strong and weak results do not stand in their true shares. Single values of this set are uncertain.

Chains of the proteins cited; added tags and fusions are not shown. Lines headed by an entry give the natural chain unless they say otherwise; changes in a name come on top.
UniProt Q9P2E9: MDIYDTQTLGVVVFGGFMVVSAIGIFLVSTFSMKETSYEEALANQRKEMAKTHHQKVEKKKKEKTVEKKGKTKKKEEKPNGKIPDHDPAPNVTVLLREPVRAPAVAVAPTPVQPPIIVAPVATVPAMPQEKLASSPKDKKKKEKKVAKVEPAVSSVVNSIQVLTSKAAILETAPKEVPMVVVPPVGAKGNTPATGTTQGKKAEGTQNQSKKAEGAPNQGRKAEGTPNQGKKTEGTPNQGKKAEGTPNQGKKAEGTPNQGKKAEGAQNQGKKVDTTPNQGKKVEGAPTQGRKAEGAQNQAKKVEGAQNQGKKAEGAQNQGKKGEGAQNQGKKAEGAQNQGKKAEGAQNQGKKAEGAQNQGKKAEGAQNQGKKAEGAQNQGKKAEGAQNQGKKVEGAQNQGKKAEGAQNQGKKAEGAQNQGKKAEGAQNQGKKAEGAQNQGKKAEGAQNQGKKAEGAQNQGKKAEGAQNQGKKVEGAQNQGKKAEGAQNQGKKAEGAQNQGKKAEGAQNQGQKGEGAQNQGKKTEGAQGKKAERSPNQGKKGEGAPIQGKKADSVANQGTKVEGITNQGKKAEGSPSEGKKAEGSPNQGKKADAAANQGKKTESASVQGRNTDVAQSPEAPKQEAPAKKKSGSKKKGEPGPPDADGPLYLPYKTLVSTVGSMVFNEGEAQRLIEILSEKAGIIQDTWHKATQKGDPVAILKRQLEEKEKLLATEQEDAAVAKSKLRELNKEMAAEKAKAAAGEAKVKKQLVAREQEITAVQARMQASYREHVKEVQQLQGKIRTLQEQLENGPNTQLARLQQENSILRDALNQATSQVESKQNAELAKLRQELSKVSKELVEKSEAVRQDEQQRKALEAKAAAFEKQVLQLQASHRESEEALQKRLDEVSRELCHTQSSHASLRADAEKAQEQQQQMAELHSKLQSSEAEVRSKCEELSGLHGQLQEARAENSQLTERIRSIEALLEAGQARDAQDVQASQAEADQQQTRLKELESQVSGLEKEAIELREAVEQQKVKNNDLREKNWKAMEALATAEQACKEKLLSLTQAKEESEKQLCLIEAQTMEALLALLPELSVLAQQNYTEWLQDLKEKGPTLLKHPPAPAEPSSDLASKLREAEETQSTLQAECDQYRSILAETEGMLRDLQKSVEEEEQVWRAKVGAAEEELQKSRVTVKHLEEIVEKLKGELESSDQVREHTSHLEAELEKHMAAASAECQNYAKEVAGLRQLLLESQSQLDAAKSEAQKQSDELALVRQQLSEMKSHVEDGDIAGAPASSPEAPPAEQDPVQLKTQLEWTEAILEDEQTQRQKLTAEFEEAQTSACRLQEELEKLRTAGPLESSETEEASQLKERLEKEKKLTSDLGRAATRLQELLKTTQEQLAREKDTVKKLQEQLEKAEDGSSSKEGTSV
UniProt Q9UBL3, whole entry, looked up: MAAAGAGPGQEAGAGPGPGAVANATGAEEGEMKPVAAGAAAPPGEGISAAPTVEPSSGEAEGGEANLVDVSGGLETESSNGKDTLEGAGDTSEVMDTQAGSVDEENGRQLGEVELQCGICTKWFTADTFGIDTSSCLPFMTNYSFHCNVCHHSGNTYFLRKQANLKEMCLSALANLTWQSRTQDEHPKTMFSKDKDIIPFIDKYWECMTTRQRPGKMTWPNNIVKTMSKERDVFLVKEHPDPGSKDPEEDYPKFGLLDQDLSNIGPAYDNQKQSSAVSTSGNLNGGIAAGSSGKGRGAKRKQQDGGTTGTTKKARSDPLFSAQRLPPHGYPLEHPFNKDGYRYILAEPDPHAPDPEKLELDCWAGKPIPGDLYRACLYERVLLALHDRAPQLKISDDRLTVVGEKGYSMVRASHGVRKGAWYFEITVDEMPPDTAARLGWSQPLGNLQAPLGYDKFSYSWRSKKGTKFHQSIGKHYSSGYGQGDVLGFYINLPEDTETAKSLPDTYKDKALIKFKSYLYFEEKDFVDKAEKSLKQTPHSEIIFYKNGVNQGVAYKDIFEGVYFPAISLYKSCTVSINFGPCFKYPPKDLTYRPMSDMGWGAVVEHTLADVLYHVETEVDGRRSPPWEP
UniProt Q9NZL9, whole entry, looked up: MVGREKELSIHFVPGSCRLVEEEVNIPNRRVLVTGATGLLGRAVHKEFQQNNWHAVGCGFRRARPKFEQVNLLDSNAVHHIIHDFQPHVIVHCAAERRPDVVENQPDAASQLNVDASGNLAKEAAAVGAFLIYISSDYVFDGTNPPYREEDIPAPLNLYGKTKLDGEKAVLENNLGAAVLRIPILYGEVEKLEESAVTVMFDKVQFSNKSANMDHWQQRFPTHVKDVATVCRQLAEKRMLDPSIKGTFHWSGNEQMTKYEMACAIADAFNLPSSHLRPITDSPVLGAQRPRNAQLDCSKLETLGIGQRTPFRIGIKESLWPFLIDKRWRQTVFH
UniProt Q9P289: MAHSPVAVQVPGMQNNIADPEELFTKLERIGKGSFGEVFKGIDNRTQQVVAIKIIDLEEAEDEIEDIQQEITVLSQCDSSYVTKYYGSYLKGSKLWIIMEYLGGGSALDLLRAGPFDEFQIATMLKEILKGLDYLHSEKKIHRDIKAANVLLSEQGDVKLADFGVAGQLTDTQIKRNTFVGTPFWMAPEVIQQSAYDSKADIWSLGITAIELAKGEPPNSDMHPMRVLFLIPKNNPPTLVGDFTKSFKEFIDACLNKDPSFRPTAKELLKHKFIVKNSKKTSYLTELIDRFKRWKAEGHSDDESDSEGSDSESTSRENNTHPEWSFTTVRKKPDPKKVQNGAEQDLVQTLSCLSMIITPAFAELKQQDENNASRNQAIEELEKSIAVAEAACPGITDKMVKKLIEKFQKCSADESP
UniProt Q9NZ08: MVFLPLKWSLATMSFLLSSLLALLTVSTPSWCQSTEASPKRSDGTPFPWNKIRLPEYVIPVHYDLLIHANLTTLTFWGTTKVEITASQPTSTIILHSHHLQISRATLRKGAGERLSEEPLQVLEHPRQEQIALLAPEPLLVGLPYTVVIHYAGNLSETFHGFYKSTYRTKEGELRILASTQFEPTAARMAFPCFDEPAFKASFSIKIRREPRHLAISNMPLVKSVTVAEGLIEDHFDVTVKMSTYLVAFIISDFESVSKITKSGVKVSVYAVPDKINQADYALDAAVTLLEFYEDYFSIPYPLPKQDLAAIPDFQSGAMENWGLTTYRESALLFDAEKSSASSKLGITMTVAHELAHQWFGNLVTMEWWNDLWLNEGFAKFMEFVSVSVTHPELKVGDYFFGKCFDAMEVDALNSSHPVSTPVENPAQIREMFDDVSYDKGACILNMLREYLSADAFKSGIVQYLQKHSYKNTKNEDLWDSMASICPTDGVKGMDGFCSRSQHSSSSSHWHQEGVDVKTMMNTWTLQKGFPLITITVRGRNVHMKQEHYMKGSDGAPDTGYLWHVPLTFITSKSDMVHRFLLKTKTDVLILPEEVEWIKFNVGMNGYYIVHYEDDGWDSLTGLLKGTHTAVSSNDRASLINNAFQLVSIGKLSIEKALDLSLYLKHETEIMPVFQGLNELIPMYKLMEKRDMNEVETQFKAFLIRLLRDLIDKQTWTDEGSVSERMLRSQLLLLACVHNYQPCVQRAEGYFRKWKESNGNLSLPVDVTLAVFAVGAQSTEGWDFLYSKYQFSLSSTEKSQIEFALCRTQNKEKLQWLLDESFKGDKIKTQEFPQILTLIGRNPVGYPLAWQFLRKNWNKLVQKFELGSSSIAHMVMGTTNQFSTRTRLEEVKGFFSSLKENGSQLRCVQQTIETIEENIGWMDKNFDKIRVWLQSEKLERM
UniProt Q9NYP9: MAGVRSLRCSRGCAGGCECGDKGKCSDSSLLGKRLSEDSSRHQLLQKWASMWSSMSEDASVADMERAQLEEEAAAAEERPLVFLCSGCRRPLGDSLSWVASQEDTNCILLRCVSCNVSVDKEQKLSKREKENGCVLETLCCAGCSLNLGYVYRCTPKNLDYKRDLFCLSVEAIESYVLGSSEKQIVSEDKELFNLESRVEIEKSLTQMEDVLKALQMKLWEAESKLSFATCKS
UniProt Q9NVU0: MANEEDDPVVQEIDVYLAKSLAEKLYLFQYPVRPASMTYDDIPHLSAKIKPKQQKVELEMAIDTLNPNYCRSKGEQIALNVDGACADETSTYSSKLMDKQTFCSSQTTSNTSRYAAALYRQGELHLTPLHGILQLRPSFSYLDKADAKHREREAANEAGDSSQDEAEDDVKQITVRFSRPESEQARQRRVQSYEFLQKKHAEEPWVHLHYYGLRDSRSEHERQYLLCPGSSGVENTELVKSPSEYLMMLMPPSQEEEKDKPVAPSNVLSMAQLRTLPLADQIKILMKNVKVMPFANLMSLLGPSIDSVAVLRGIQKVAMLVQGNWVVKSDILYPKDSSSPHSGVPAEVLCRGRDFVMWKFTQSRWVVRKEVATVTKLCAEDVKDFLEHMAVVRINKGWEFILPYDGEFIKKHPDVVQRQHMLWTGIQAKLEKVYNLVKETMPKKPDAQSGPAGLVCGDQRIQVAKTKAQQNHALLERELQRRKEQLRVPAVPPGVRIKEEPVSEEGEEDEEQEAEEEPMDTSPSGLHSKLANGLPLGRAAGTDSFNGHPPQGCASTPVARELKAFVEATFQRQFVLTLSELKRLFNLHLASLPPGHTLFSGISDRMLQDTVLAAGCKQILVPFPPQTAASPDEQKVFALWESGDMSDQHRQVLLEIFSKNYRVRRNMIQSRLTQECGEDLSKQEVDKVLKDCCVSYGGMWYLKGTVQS
UniProt Q9NYY8: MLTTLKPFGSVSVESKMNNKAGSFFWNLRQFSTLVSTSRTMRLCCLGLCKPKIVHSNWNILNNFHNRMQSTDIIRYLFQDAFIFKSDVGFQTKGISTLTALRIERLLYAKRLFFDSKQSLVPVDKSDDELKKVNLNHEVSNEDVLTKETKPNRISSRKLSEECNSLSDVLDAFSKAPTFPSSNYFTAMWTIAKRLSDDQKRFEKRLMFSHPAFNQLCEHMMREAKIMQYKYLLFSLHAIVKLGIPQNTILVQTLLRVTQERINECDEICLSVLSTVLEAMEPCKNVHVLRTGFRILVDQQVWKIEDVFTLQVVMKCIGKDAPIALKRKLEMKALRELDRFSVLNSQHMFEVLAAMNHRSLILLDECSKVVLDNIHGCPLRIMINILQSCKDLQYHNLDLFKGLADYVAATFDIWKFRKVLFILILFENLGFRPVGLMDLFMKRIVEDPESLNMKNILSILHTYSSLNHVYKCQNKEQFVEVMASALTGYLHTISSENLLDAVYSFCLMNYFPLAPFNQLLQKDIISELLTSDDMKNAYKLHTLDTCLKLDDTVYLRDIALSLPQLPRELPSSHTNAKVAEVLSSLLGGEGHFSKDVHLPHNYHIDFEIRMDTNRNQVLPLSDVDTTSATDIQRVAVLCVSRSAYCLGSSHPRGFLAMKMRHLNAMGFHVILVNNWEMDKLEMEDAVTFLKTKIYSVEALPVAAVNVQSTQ
UniProt Q9NUQ9: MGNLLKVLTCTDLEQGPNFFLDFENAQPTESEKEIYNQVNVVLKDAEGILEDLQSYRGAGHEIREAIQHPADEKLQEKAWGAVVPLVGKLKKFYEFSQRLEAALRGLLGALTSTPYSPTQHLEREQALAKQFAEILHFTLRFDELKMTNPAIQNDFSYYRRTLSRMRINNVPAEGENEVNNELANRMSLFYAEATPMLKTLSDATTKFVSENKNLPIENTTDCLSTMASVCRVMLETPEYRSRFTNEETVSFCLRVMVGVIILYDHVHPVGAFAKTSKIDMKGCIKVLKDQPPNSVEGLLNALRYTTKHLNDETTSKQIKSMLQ
UniProt Q9UGI8: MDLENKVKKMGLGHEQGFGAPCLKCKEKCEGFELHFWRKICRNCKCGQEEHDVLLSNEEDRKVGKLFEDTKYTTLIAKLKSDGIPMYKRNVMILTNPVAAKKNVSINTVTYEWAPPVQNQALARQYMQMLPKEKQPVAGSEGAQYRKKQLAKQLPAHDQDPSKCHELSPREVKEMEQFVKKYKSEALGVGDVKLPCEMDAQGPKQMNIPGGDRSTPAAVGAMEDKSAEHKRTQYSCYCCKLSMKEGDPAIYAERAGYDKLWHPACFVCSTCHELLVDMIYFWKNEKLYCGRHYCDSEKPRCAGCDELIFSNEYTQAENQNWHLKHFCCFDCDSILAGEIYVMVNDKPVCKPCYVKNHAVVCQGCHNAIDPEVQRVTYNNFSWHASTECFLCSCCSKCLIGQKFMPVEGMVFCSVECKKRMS

compound: COC(=O)/C=C/c1ccccc1 [methyl cinnamate]; assay: log2 ratio of iodoacetamide-alkyne labeling of the cysteine site, DMSO over compound (competition); higher = stronger covalent engagement of the cysteine by the compound, active = 1 or more; conditions: 500 µM; treatment time 1 h; system: HEK293T cell lysate
Procedure, shortened: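 After 1 h at ambient temperature with vehicle or electrophile (500 µM), HEK293T lysate (2 mg/mL) was labelled for 1 h with iodoacetamide alkyne and clicked to sCIP-TMT reagents. Pooled samples were trypsin-digested overnight at 37 °C, streptavidin-enriched, acid-eluted and analysed by Orbitrap Eclipse LC-MS/MS with FAIMS, then quantified in FragPipe over three replicates with duplicate channels. A cysteine's log2 competition ratio is its mean control-channel over mean compound-channel reporter intensity. Cysteines quantified in only one replicate were not included.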

log2 ratio of iodoacetamide-alkyne labeling, inactive:
RRBP1 C1128 (UniProt Q9P2E9) 0.138, MRPL39 C133 (UniProt Q9NYK5) 0.631, SEC63 C366 (UniProt Q9UGP8) 0.0859, ASH2L C362 (UniProt Q9UBL3) -0.0334, MAT2B C58 (UniProt Q9NZL9) 0.0738, LARS C113 (UniProt Q9P2J5) 0.116, UniProt Q9P289_C410 0.392, FAM120A C919 (UniProt Q9NZB2) 0.112, ERAP1 C486 (UniProt Q9NZ08) 0.204, UniProt Q9NYP9_C107 0.154, POLR3E C456 (UniProt Q9NVU0) 0.481, FASTKD2 C163 (UniProt Q9NYY8) 0.02, MTPAP C242 (UniProt Q9NVV4) 0.0686, FAM49B C10 (UniProt Q9NUQ9) 0.0684, TES C364 (UniProt Q9UGI8) 0.0488, ABCF3 C628 (UniProt Q9NUQ8) -0.233
